{"source": "paper PMC11984401", "key": {"[1]": {"target": "T1, C-terminal FLAG-tagged AMBP (alpha-1-microglobulin/bikunin precursor) (UniProt P02760)", "T1 sequence": "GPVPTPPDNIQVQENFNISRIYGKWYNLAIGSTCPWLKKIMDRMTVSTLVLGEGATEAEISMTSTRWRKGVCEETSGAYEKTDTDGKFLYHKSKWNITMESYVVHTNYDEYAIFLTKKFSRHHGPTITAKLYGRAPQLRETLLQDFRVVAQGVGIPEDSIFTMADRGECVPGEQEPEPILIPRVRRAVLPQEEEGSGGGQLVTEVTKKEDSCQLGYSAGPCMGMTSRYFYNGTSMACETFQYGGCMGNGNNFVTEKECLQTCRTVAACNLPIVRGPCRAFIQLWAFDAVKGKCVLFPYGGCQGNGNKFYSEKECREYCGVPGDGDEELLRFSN", "test": "co-IP; HEK293T transfected with Flag-tagged AMBP plasmid for 48 h; non-denaturing lysis buffer; Flag antibodies on protein A/G magnetic beads, lysate overnight at 4 °C, four washes with PBS 0.5% Tween-20; immunoblot for FHL3, CTSB and PIK3CA"}, "[2]": {"target": "T1, C-terminal FLAG-tagged AMBP (alpha-1-microglobulin/bikunin precursor)", "test": "co-IP; HEK293T co-transfected with AMBP-Flag and full-length or truncated FHL3-HA plasmids for 48 h; lysates precipitated with Flag antibodies; immunoblot with HA antibodies"}, "[3]": {"target": "T2, four-and-a-half LIM domain protein 3 (FHL3), endogenous in primary human VICs (human (endogenous in primary human VICs)) (UniProt Q13643)", "T2 sequence": "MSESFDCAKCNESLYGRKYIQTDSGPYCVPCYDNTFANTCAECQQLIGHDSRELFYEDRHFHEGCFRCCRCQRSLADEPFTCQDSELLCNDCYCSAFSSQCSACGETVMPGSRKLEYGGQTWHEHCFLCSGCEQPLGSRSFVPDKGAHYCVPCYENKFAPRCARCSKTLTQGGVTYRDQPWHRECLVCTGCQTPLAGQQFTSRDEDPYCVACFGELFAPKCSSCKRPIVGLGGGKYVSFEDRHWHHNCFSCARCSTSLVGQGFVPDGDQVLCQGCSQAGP", "test": "co-IP; primary VICs transfected with Ad-AMBP or Ad-NC for 48 h, then OM for 10 min; lysates precipitated with FHL3 antibodies; immunoblot for P-JNK and P-ERK1/2"}}, "note": "These are yes or no findings as the source states them, for the method shown. Binding seen in cells or lysates may run through a third protein. Some results given as binding are weak or reduced against the parent protein; the word gives no strength. Where a sequence is shown, tags or fusion partners need not be part of it."}
{"binder": "four-and-a-half LIM domain protein 3 (FHL3), endogenous in HEK293T (protein, UniProt Q13643 1-280) MSESFDCAKCNESLYGRKYIQTDSGPYCVPCYDNTFANTCAECQQLIGHDSRELFYEDRHFHEGCFRCCRCQRSLADEPFTCQDSELLCNDCYCSAFSSQCSACGETVMPGSRKLEYGGQTWHEHCFLCSGCEQPLGSRSFVPDKGAHYCVPCYENKFAPRCARCSKTLTQGGVTYRDQPWHRECLVCTGCQTPLAGQQFTSRDEDPYCVACFGELFAPKCSSCKRPIVGLGGGKYVSFEDRHWHHNCFSCARCSTSLVGQGFVPDGDQVLCQGCSQAGP", "values": [{"measurement": "binding", "setting": "[1]", "value": "binds"}]}
{"binder": "full-length FHL3 with a C-terminal HA tag (protein, UniProt Q13643 1-280) MSESFDCAKCNESLYGRKYIQTDSGPYCVPCYDNTFANTCAECQQLIGHDSRELFYEDRHFHEGCFRCCRCQRSLADEPFTCQDSELLCNDCYCSAFSSQCSACGETVMPGSRKLEYGGQTWHEHCFLCSGCEQPLGSRSFVPDKGAHYCVPCYENKFAPRCARCSKTLTQGGVTYRDQPWHRECLVCTGCQTPLAGQQFTSRDEDPYCVACFGELFAPKCSSCKRPIVGLGGGKYVSFEDRHWHHNCFSCARCSTSLVGQGFVPDGDQVLCQGCSQAGP", "values": [{"measurement": "binding", "setting": "[2]", "value": "binds"}]}
{"binder": "AMBP overexpressed from adenovirus (Ad-AMBP) in VICs (protein, UniProt P02760 20-352) GPVPTPPDNIQVQENFNISRIYGKWYNLAIGSTCPWLKKIMDRMTVSTLVLGEGATEAEISMTSTRWRKGVCEETSGAYEKTDTDGKFLYHKSKWNITMESYVVHTNYDEYAIFLTKKFSRHHGPTITAKLYGRAPQLRETLLQDFRVVAQGVGIPEDSIFTMADRGECVPGEQEPEPILIPRVRRAVLPQEEEGSGGGQLVTEVTKKEDSCQLGYSAGPCMGMTSRYFYNGTSMACETFQYGGCMGNGNNFVTEKECLQTCRTVAACNLPIVRGPCRAFIQLWAFDAVKGKCVLFPYGGCQGNGNKFYSEKECREYCGVPGDGDEELLRFSN", "values": [{"measurement": "binding", "setting": "[3]", "value": "binds"}]}
